Reference: article PMC9830501
No constants are given. Whether binding was seen depends on the method and setting. In cells and extracts the contact can be indirect. Some binding calls cover weakened binding; strength is not graded here.

Chains of the proteins cited; added tags and fusions are not shown.
UniProt Q9JK66: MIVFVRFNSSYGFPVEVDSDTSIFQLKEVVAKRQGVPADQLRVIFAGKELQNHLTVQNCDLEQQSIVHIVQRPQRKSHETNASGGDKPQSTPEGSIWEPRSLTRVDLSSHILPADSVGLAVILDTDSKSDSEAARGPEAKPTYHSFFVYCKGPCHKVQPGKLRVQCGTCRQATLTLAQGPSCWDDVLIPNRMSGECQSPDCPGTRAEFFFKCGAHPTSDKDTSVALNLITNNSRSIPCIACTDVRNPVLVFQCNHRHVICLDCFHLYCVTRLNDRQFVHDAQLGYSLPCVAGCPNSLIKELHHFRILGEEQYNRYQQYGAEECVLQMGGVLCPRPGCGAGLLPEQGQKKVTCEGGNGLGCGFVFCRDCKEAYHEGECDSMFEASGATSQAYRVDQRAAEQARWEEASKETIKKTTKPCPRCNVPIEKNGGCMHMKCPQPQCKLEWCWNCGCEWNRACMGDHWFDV

Columns and labels:
Test in all cases: co-IP; endogenous proteins; whole cell lysate of rat NP cells treated with 0 or 20 ng/ml IL-1β for 48h; IP with control IgG, anti-Sesn2, anti-Parkin or anti-Sqstm1 antibody, protein A agarose, 4°C; immunoblot
[1] = biological target: Parkin (rat (endogenous in NP cells)) (UniProt Q9JK66)
[2] = biological target: T1, Sestrin 2 (Sesn2) (rat (endogenous in NP cells))
T1 sequence: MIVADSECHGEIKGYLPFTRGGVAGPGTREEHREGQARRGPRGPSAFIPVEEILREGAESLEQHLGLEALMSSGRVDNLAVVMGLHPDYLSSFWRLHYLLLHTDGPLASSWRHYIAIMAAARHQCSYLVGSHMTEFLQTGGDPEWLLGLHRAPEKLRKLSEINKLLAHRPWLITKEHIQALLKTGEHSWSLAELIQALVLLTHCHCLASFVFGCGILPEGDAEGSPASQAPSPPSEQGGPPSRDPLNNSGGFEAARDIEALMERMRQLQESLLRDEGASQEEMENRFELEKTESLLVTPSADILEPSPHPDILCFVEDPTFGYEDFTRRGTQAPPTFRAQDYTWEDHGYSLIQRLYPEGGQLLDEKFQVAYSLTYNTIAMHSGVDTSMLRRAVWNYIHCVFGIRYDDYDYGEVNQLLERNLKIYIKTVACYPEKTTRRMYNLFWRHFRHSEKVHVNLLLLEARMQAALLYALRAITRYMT

[3] = biological target: Sqstm1 (rat (endogenous in NP cells)) (UniProt O08623)

binding [1] | binding [2] | binding [3] | Substance
no binding | binds | – | Sqstm1 (from UniProt O08623 1-439)
– | binds | no binding | Parkin (from UniProt Q9JK66 1-465)
